Measurements reported in PubChem BioAssay AID743454 (Peter MacCallum Cancer Centre, 2014)
Test: 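Search for knock-downs that restore vorinostat killing in resistant colon cancer cells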 (primary screen). Cell system: human HCT116-VR colon cancer cells, selected for vorinostat resistance. Reagents: siRNA pool against human genes, 40 nM siRNA pool. Duration: vorinostat for 24 h, read-out about 72 h after transfection. Treatment: vorinostat at 2.5 µM final. Detection: 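Two measures, CellTiter-Fluor viability and luminescent caspase 3/7 activity, each as fold change against same-plate mock wells, mean of duplicates, then screen-wide robust z-score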. Direction: viability robust z-score: higher = more viable cells than screen typical; caspase robust z-score: higher = more caspase 3/7 activity than screen typical. Hit rule: 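Hits are knock-downs in viability class RV1/RV2 or caspase class CA1/CA2, excluding ones that killed cells in the no-drug cell-count arm; hits then retested with single siRNAs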.
Here is a random part of about 18,000 deposited reagents. In the full data, 450 (2.5%) were called active. 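Single biological run; no consistent viability z cut-off exists, so the class columns, not z-scores, define the calls.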 No sequences are given here.

viability hit class	caspase hit class	viability robust z-score	caspase robust z-score	outcome	Gene
no change	no change	-0.66	1.62	inactive	PCDHB11
no change	no change	-4.45	1.18	inactive	PSMB4
no change	no change	0.2	-0.53	inactive	SEC24C
no change	no change	0.16	-0.06	inactive	DUSP21
no change	no change	-1.16	0.03	inactive	POLR1B
no change	no change	-3.09	3.88	inactive	BCL2L1
no change	no change	0.08	-0.54	inactive	CT45A6
no change	no change	-1.31	-0.72	inactive	OPN5
no change	no change	-2.01	-0.54	inactive	SLC31A1
no change	no change	-0.09	-0.78	inactive	LRCH4
no change	no change	-0.81	1.23	inactive	ADISSP
no change	no change	-2.45	3.94	inactive	DHX38
no change	no change	1.37	2.11	inactive	VPS28
no change	no change	-0.13	-1.15	inactive	KIF3B
no change	no change	-0.53	3.59	inactive	EIF4H
no change	no change	0.13	-0.24	inactive	NUDT6
no change	no change	-0.96	-0.38	inactive	KIF2A
no change	no change	-0.76	-0.24	inactive	VPS29
no change	no change	-0.16	-0.61	inactive	ZNF503
no change	no change	-0.04	1.64	inactive	PAFAH1B1
no change	no change	0.76	-0.38	inactive	TMEM245

3 entries already listed, ordered by “caspase robust z-score”, descending.
viability hit class	caspase hit class	viability robust z-score	caspase robust z-score	outcome	Gene
no change	no change	-2.45	3.94	inactive	DHX38
no change	no change	1.37	2.11	inactive	VPS28
no change	no change	-0.13	-1.15	inactive	KIF3B

More entries follow.
viability hit class	caspase hit class	viability robust z-score	caspase robust z-score	outcome	Gene
no change	no change	0.63	-0.8	inactive	CABP2
no change	no change	0.32	-0.31	inactive	ZXDC
no change	no change	0.2	-0.04	inactive	PPP6R3
no change	no change	-1.82	4.07	inactive	VWA1
no change	no change	-0.1	-0.01	inactive	TEDDM1
no change	no change	0.5	2.16	inactive	C6orf163
no change	no change	-0.12	0.54	inactive	PIH1D1
no change	no change	-1.66	2.24	inactive	NFKBIL1
no change	no change	-1.62	0.24	inactive	TRAK1
no change	no change	0.2	-0.22	inactive	SLC46A1
no change	no change	0.56	-0.64	inactive	MB21D2
no change	no change	0.08	-0.23	inactive	F8A1
RV2 (reduced viability)	no change	-2.96	3.35	active	NAT8B
no change	no change	-0.65	-0.52	inactive	KDM5A
no change	no change	1.3	0.03	inactive	PPM1A
no change	no change	-0.34	0.42	inactive	EXOSC7
no change	no change	1.1	3.92	inactive	TTI1
no change	no change	-1.04	3.72	inactive	NPBWR1
